# In PMC7819943, “Rice protein-binding microarrays: a tool to detect cis-acting elements near promoter regions in rice”:
# The chains behind the UniProt entries cited, without tags or fusion partners.
# UniProt Q0JBA9, entry or part of it: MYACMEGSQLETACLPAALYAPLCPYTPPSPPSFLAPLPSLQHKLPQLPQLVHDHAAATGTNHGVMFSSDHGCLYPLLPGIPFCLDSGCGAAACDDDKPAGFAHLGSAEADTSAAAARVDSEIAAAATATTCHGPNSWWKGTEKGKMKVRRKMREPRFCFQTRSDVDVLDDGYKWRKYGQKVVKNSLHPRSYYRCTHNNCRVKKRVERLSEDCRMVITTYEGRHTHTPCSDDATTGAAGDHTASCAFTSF
# This is one part of the list.
# Target: OsWRKY34 (Oryza sativa, UniProt Q0JBA9 1-250)
# Experiment: protein-binding microarray (RPBM); PBS, 2% BSA, 51.3 ng/ul salmon testes DNA, 50 uM zinc acetate, 200 nM TF, 25 C, 1 h; high values mean tight binding
# Conditions: protein: recombinant; tags: N-terminal polyhistidine and DsRed monomer fusion (pET32a); label: CyDye5-dUTP incorporated in the synthesized complementary strand; 3' TTTTT single-stranded linker to array surface; dsDNA, one strand shown
# How it was run: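 Transcription factors, each fused N-terminally to a polyhistidine tag and DsRed, were expressed in E. coli BL21-CodonPlus and purified on Ni–NTA. A custom Agilent array was made double-stranded by primer extension with Cy5-dUTP and blocked with 2% BSA. It was incubated with 200 nM protein in PBS, 2% BSA, salmon testes DNA and 50 µM zinc acetate at 25 °C for 1 h, then washed. The binding signal is per-feature fluorescence intensity (arbitrary units) read on an Axon 4000B scanner.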
row,Sequence,binding signal
1,TCGAGCTCTCACCGCCCCGATGCTCACTCCATCTTGATCACGGAGTCACCTAGTGCAG,8740 fluorescence intensity (a.u.)
2,TCTCTTCCTTGCTGTGGTGGCGGCGGGCGGGAGGGCGGCGCGGAGTCACCTAGTGCAG,35000 fluorescence intensity (a.u.)
3,TTTAATATTCTACGTGGTCTAAATTATTCTCTGAAATTTTCGGAGTCACCTAGTGCAG,8970 fluorescence intensity (a.u.)
4,TCTCCTGACCCTTAGATCTGTTCATCCAACGGTTTATATCCGGAGTCACCTAGTGCAG,9300 fluorescence intensity (a.u.)
5,TGCATATGGCGAGCACACACAGGCACACAGCCGGAGCCAACGGAGTCACCTAGTGCAG,8340 fluorescence intensity (a.u.)
6,GATGACACTGACACCAGATGTTTCTTCTCTCTTTCAAGATCGGAGTCACCTAGTGCAG,10400 fluorescence intensity (a.u.)
7,ATAACCCGCCACCTCTTCTCTTCTCTTCCCTTCTCTCTTCCGGAGTCACCTAGTGCAG,10200 fluorescence intensity (a.u.)
8,TTAAGGGCATGTTTAGTTCTCAAACAAAATTTTCTAGCTGCGGAGTCACCTAGTGCAG,8270 fluorescence intensity (a.u.)
9,ACTGACAGGAGGCGTGGAGTTGTTGAGGTACTACTTTTATCGGAGTCACCTAGTGCAG,8710 fluorescence intensity (a.u.)
10,CATGCATGTTAGCACGTAGGTGGCGTTTGTCTTTTATCAACGGAGTCACCTAGTGCAG,9200 fluorescence intensity (a.u.)
11,TTTTTCCTTTGCTTTTTGTCAACCCAGGTGCAATATTCTGCGGAGTCACCTAGTGCAG,9080 fluorescence intensity (a.u.)
12,GTTCATCGGACATTGCCATCGTATAGTCCAATTCTCGTGCCGGAGTCACCTAGTGCAG,8320 fluorescence intensity (a.u.)
13,TTCTCTCCTTTTTACCTGGGGCACTAGTACATACTGTACCCGGAGTCACCTAGTGCAG,10200 fluorescence intensity (a.u.)
14,TCAGAAATTCTACCATCCACCGAGGTATTTTTACTTAGATCGGAGTCACCTAGTGCAG,9530 fluorescence intensity (a.u.)
15,GTCAAGCTCCTCTCCGACGGCCGCTGCTTCTTTCCCCGCTCGGAGTCACCTAGTGCAG,10400 fluorescence intensity (a.u.)
16,CAATCTCTCGCGTCCCTCTCGCTCTCTTCCCGCTATTCTTCGGAGTCACCTAGTGCAG,10000 fluorescence intensity (a.u.)
17,TAAGTTACTTTATGTGTTCTGGCTTGGGCCTTCCGTGTGACGGAGTCACCTAGTGCAG,8100 fluorescence intensity (a.u.)
18,TCTATGTCTAACTTTGATCGCTTGTCTTATTTGAAGTTTTCGGAGTCACCTAGTGCAG,9330 fluorescence intensity (a.u.)
19,TACCTCATTCCCTAAATGTTTGACGCCGTTGACTTTTTTACGGAGTCACCTAGTGCAG,17500 fluorescence intensity (a.u.)
20,TGCTTCACACTCACTCAAGCACAAAAATTTTCACCCCATCCGGAGTCACCTAGTGCAG,8700 fluorescence intensity (a.u.)
21,CATTCTAGCATTTCTCACATTCACATTGATATTAATTAATCGGAGTCACCTAGTGCAG,8440 fluorescence intensity (a.u.)

row,Sequence,binding signal
1,GTTAACTTTTGGTAGTTGCAGGGGTTCTATAGGTGGGCAGCGGAGTCACCTAGTGCAG,8640 fluorescence intensity (a.u.)
2,CCTCCTCGTCATGATCGTCGTGCAGCGGCAGTTCGCCTTCCGGAGTCACCTAGTGCAG,9180 fluorescence intensity (a.u.)
3,TCATCTTCACTTCAGTCTCAGCTCAAAAACTTTTGACACTCGGAGTCACCTAGTGCAG,9030 fluorescence intensity (a.u.)
4,TTATCCTCTTGCTCTTGCCTGCCATTGCGCGCCCAGGTTACGGAGTCACCTAGTGCAG,10700 fluorescence intensity (a.u.)
5,TTCAAATTTTTCCGTCCTCCTTTTGCATGTCCCTGTTTGACGGAGTCACCTAGTGCAG,10800 fluorescence intensity (a.u.)
6,ATAAATTTTCGTTACCGTATTCACGCCGGTTCGTTTTCACCGGAGTCACCTAGTGCAG,10200 fluorescence intensity (a.u.)
7,TCTCCAGCTTTTTTCTGTTCCTCTGGTCTTGATTCTTGAACGGAGTCACCTAGTGCAG,18200 fluorescence intensity (a.u.)
8,ACCTGCTTCCTTAATTAACTCCTTTCCGTCCTTTGTACTTCGGAGTCACCTAGTGCAG,8370 fluorescence intensity (a.u.)
9,AAAACCCAATTAGTCATACATTATTACCACATCGTTTTACCGGAGTCACCTAGTGCAG,8340 fluorescence intensity (a.u.)
10,ATCGGACAATTACCTGGGCTCTATCTATCATCTCTTCTACCGGAGTCACCTAGTGCAG,13300 fluorescence intensity (a.u.)
11,TTCACTTTAGGTCCCTCTACTTGACGCCCAGTCTGATTTTCGGAGTCACCTAGTGCAG,8180 fluorescence intensity (a.u.)
12,CTCCACGGCTCCACGGCTCCACGCCTCTTCCACCTCGTCGCGGAGTCACCTAGTGCAG,8270 fluorescence intensity (a.u.)
13,ATCATTATCCTCTCACCCTGTGTCACTCTCTCGTTCTTTCCGGAGTCACCTAGTGCAG,10000 fluorescence intensity (a.u.)
14,GCGCCACCGCGTCTACTGCCGCCGCCGCCGCCGCGTCCACCGGAGTCACCTAGTGCAG,8480 fluorescence intensity (a.u.)
15,GAATAAACCCTAACCTGGCCCTTATCATTATGCGTCGGAGCGGAGTCACCTAGTGCAG,8100 fluorescence intensity (a.u.)
16,AATCGTTTTGTTTGTTTGTTTTTTTATTGGCATTAGGGCCCGGAGTCACCTAGTGCAG,12000 fluorescence intensity (a.u.)
17,AGTACCCTTGCTCGATCCCTACTGGTTGACTGACTTGTAACGGAGTCACCTAGTGCAG,10700 fluorescence intensity (a.u.)
18,GTGTTTGGTTGAGAGGCGAATGGGATGGGTTGGTCCCTGGCGGAGTCACCTAGTGCAG,8080 fluorescence intensity (a.u.)
19,TGTGCATGTCCACGTGTTATCGCTTTCCTCACAATTCATCCGGAGTCACCTAGTGCAG,14100 fluorescence intensity (a.u.)
20,GTTTGTCCCTTTTGACATATGAACTCTTCTCCATGATTTCCGGAGTCACCTAGTGCAG,8060 fluorescence intensity (a.u.)
21,GCTATAAGTAGCTCCAGCATCAACTCCTAGCTTCACAGCCCGGAGTCACCTAGTGCAG,8030 fluorescence intensity (a.u.)

# Taken from above:
# binding signal with AGTACCCTTGCTCGATCCCTACTGGTTGACTGACTTGTAACGGAGTCACCTAGTGCAG is entered as 10700 fluorescence intensity (a.u.)
# binding signal with GTTTGTCCCTTTTGACATATGAACTCTTCTCCATGATTTCCGGAGTCACCTAGTGCAG is entered as 8060 fluorescence intensity (a.u.)
